Results taken from the supplement of paper PMC10849652.
This is one part of the list.

By UniProt entry, the sequences of proteins in these tests, tags left out. Where a name states a change or a piece, a line headed by the entry shows the natural chain unless it says otherwise.
UniProt O15258: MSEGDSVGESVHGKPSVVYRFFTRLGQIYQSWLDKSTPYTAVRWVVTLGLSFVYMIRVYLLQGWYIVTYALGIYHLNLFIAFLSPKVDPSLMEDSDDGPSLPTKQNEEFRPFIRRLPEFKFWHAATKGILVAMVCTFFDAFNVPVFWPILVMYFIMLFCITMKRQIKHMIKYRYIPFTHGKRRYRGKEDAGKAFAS
UniProt Q8TC12: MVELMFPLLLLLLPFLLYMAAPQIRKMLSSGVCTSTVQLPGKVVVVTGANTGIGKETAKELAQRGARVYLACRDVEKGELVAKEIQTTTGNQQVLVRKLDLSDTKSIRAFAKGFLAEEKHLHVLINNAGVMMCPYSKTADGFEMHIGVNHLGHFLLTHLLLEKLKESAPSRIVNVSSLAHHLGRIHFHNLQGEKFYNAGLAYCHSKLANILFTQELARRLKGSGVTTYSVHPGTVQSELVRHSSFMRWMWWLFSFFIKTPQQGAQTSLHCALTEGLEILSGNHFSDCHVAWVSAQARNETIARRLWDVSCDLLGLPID
UniProt P62877, whole entry, looked up: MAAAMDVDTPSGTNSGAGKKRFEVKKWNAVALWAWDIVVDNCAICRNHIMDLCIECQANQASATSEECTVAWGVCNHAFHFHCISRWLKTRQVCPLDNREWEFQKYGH
UniProt Q14644: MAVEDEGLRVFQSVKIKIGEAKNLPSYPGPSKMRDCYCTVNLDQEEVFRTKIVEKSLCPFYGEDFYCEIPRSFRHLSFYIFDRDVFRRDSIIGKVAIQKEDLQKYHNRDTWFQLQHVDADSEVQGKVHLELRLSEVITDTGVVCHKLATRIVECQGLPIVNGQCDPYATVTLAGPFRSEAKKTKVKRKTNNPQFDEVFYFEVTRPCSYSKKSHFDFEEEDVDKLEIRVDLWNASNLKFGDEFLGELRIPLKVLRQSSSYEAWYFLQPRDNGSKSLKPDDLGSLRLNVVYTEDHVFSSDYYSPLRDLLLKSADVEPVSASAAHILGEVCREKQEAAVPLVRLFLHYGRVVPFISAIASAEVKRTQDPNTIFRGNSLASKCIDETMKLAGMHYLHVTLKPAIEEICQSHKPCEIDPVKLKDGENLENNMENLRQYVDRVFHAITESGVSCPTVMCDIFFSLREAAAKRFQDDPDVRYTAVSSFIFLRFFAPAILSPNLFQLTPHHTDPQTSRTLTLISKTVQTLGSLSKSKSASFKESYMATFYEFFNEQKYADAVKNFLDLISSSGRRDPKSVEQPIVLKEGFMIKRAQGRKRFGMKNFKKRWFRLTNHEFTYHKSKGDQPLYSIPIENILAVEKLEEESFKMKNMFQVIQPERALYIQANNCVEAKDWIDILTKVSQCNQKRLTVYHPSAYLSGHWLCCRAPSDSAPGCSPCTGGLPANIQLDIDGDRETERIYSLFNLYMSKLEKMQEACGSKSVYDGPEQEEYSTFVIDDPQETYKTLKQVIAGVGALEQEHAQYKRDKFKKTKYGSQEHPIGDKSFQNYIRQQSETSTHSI
UniProt Q9Y580: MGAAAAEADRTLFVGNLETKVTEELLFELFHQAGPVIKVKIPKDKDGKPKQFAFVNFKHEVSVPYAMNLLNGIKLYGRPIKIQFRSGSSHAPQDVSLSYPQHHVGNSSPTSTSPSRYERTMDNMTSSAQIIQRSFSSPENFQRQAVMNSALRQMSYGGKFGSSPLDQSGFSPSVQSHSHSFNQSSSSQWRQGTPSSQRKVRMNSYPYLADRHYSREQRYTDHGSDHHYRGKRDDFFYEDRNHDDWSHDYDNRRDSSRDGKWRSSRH
UniProt Q8N0V3: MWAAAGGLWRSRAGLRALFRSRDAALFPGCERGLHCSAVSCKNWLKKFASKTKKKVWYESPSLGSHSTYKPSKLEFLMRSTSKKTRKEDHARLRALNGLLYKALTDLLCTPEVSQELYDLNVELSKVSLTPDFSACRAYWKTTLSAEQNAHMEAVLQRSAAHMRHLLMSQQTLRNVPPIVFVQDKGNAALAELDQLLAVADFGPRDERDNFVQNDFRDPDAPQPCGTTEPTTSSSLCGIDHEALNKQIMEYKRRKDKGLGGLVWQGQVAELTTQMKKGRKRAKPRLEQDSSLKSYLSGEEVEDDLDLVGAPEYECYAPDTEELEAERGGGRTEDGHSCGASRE
UniProt O15211: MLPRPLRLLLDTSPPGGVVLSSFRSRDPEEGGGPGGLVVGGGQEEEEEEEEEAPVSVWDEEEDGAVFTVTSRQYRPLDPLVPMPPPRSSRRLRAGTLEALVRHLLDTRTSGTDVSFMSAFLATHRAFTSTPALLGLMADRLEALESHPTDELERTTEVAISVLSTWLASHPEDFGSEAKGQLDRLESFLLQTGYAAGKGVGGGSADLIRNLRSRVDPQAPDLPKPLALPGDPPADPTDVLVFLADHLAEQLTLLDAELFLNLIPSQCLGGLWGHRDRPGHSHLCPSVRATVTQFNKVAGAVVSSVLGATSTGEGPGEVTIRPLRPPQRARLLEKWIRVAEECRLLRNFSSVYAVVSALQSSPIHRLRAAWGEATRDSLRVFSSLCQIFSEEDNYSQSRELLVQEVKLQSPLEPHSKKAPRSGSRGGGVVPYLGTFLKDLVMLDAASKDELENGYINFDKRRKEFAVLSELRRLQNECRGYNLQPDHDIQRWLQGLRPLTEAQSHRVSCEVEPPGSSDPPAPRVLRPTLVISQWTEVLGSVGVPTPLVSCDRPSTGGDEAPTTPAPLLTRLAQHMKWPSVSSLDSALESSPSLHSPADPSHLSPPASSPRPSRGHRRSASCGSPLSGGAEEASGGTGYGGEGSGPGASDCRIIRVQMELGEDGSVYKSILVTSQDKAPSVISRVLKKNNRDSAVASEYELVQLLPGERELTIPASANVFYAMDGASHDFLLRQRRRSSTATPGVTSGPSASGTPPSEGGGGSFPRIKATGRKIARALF
UniProt P98175: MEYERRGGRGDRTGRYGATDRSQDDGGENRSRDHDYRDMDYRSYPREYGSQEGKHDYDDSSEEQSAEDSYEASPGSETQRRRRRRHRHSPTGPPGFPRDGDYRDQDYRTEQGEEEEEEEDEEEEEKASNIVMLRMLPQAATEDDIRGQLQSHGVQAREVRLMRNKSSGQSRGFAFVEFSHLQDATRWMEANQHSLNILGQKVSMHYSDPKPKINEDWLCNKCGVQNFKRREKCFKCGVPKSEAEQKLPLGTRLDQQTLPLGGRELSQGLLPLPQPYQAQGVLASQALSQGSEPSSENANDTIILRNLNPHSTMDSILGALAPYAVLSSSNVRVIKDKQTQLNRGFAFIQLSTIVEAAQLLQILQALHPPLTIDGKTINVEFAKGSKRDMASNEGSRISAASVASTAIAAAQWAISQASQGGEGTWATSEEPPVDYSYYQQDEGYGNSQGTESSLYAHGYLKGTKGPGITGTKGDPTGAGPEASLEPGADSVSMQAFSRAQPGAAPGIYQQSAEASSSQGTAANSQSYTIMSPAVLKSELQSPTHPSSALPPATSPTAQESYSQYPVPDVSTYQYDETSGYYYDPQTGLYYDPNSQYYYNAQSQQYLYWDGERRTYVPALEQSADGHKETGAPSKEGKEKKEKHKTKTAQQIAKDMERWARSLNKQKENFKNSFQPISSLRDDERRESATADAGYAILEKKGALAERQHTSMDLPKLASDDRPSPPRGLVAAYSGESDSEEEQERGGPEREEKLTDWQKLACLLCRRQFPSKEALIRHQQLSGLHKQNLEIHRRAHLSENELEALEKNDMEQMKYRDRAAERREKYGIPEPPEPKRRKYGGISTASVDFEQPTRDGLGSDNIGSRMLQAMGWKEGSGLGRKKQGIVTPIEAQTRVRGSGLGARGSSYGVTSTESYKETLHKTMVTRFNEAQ
UniProt P49795: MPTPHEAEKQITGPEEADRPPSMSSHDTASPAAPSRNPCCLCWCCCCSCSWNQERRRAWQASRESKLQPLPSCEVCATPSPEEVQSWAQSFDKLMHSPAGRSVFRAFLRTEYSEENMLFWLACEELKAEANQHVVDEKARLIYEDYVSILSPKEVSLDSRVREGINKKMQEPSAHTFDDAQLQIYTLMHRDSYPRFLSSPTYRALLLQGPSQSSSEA
UniProt Q15291, whole entry, looked up: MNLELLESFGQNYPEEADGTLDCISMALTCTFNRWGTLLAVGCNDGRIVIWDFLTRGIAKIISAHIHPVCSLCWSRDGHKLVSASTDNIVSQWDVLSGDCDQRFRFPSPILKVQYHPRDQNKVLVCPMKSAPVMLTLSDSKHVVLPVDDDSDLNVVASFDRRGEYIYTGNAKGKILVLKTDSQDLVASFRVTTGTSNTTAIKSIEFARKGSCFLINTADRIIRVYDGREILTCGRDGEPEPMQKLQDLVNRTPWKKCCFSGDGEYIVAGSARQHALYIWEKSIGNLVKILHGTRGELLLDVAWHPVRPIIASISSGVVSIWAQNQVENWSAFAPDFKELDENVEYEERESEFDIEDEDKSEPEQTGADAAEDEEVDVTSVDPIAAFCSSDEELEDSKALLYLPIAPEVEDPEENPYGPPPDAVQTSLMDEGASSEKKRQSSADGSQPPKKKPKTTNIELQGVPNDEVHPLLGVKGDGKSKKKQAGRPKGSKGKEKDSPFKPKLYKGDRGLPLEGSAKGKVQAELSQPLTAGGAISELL
UniProt P48380: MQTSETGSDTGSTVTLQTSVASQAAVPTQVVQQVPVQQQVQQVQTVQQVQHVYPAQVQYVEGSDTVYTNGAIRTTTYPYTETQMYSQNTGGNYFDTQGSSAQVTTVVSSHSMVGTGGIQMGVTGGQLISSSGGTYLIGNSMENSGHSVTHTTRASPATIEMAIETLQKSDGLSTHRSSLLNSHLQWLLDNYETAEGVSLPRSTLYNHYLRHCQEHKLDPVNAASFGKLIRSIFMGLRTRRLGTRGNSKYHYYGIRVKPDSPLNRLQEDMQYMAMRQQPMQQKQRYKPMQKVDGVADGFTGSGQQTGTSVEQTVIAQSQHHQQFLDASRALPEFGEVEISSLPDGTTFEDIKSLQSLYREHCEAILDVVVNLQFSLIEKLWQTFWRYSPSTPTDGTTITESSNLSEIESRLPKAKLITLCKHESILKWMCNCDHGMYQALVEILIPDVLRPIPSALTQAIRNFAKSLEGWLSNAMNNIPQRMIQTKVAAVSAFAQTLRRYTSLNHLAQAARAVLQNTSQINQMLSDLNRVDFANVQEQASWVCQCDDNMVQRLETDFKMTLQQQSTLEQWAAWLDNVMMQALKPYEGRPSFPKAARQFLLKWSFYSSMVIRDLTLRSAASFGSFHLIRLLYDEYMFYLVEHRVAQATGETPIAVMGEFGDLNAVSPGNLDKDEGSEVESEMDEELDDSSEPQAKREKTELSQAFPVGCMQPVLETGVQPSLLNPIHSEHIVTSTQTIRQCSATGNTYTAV
UniProt Q96IZ5: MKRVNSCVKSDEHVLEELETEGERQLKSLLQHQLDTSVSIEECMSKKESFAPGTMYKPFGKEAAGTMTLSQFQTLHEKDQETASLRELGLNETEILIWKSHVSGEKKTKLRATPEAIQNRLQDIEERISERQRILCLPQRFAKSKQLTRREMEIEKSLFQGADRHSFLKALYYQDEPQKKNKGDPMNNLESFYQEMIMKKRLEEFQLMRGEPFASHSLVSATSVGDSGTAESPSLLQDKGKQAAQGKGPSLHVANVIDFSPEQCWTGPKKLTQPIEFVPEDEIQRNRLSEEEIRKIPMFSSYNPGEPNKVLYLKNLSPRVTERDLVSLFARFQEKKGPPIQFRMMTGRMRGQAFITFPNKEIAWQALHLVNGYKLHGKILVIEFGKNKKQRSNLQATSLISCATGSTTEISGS
UniProt Q96EN9: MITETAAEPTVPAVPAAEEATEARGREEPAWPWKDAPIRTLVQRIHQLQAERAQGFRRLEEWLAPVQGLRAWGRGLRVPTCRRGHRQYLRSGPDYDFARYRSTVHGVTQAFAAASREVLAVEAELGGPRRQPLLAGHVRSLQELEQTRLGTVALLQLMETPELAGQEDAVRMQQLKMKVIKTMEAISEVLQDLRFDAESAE
UniProt Q9Y644: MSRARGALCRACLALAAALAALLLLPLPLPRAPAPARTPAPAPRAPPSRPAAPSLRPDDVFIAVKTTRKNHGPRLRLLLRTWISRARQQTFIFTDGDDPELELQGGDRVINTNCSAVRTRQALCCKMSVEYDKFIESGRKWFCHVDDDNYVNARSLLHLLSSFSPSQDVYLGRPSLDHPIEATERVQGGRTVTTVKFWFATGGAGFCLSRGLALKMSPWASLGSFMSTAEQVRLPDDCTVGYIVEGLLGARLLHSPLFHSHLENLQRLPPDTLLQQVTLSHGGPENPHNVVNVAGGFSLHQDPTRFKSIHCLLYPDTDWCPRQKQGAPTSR
UniProt Q8IZV5: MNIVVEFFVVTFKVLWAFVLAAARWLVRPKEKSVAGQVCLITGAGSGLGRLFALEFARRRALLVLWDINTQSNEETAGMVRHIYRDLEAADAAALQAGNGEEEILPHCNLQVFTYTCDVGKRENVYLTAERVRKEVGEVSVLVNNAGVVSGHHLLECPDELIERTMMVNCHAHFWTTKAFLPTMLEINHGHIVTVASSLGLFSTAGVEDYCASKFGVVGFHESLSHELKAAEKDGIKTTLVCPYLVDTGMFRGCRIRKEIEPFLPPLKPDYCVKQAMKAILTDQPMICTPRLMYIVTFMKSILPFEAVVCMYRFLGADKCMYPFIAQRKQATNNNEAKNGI

How the values were obtained:
Experiment in all cases: log2 fold change, soluble protein after heating vs DMSO (PISA); higher = thermal stabilisation; K562 lysate, 10 uM; active = over 0.2 and 3.5 SD of the protein, either way, in both replicates (recomputed)
nilotinib = compound: Cc1cn(-c2cc(NC(=O)c3ccc(C)c(Nc4nccc(-c5cccnc5)n4)c3)cc(C(F)(F)F)c2)cn1 [nilotinib]
Method in brief: (§1)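 The values are log-two fold changes in thermal stability compared with solvent controls and come from duplicates. They were obtained by TMTpro 16plex LC-MS/MS, with channel sums equalised, on the supernatant after 21,000xg for 90 min. That supernatant came from crude K562 extract at 1 mg/mL protein treated with 10 μM compound for 30 min, heated for 3 min across 48°C-58°C, pooled and brought to 0.5% NP-40 at 4°C.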

[1] = compound: Cc1nc(Nc2n[nH]c3c2CN(C(=O)N[C@H](CN(C)C)c2ccccc2)C3(C)C)c2sccc2n1
Method in brief: as §1

dasatinib = compound: Cc1nc(Nc2ncc(C(=O)Nc3c(C)cccc3Cl)s2)cc(N2CCN(CCO)CC2)n1 [dasatinib]
Method in brief: as §1

[2] = compound: Cc1ncc(-c2ccnc(Nc3ccc(S(C)(=O)=O)cc3)n2)n1C(C)C
Method in brief: as §1

[3] = compound: Cn1cc(-c2ccc3c(c2)CCN3C(=O)Cc2cccc(C(F)(F)F)c2)c2c(N)ncnc21
Method in brief: as §1

quisinostat = compound: Cn1cc(CNCC2CCN(c3ncc(C(=O)NO)cn3)CC2)c2ccccc21 [quisinostat]
Method in brief: as §1

tipifarnib = compound: Cn1cncc1[C@@](N)(c1ccc(Cl)cc1)c1ccc2c(c1)c(-c1cccc(Cl)c1)cc(=O)n2C [tipifarnib]
Method in brief: as §1

[4] = compound: NC(=O)Nc1cc(-c2cccc(F)c2)sc1C(=O)N[C@H]1CCCNC1
Method in brief: as §1

[5] = compound: NC(=O)c1cnc(N[C@@H]2CCCC[C@@H]2N)nc1Nc1cccc(-n2nccn2)c1
Method in brief: as §1

[6] = compound: NC1(c2ccc(-c3nc4ccn5c(=O)[nH]nc5c4cc3-c3ccccc3)cc2)CCC1
Method in brief: as §1

Measured: log2 fold change

RER1 (UniProt O15258)
inactive: nilotinib 0.042 | [1] -0.041 | dasatinib 0.023 | [2] -0.022 | [3] -0.037 | quisinostat 0.013 | tipifarnib 0.005 | [4] 0.018 | [5] -0.021 | [6] 0.017

RCC1L (UniProt Q96I51)
inactive: nilotinib -0.055 | [1] 0.02 | dasatinib 0.028 | [2] -0.034 | [3] 0.091 | quisinostat 0.008 | tipifarnib 0.04 | [4] -0.012 | [5] 0.031 | [6] 0.004

RBBP4 (UniProt Q09028)
inactive: nilotinib 0.054 | [1] 0.062 | dasatinib -0.005 | [2] 0.059 | [3] -0.029 | quisinostat -0.041 | tipifarnib 0.012 | [4] -0.018 | [5] -0.034 | [6] -0.019

RDH11 (UniProt Q8TC12)
inactive: nilotinib 0.034 | [1] -0.05 | dasatinib -0.075 | [2] -0.045 | [3] -0.021 | quisinostat 0.038 | tipifarnib -0.038 | [4] 0.103 | [5] 0.034 | [6] -0.011

RBX1 (UniProt P62877)
inactive: nilotinib -0.015 | [1] 0.343 | dasatinib 0.193 | [2] -0.064 | [3] -0.208 | quisinostat -0.162 | tipifarnib -0.109 | [4] -0.055 | [5] 0.039 | [6] -0.062

RASA3 (UniProt Q14644)
inactive: nilotinib 0.065 | [1] -0.014 | dasatinib -0.144 | [2] 0.039 | [3] 0.109 | quisinostat 0.062 | tipifarnib 0.009 | [4] 0.011 | [5] 0.012 | [6] 0.089

RBM7 (UniProt Q9Y580)
inactive: nilotinib 0.05 | [1] 0.006 | dasatinib -0.047 | [2] -0.03 | [3] 0.035 | quisinostat -0.036 | tipifarnib 0.023 | [4] 0.058 | [5] -0.003 | [6] 0.022

RBBP7 isoform 2 (UniProt Q16576)
inactive: nilotinib 0.013 | [1] -0.019 | dasatinib -0.005 | [2] -0.035 | [3] 0.016 | quisinostat -0.051 | tipifarnib 0.047 | [4] 0.01 | [5] -0.025 | [6] 0.035

RDH13 (UniProt Q8NBN7)
inactive: nilotinib 0.02 | [1] -0.019 | dasatinib -0.037 | [2] -0.019 | [3] 0.071 | quisinostat -0.02 | tipifarnib -0.054 | [4] 0.088 | [5] 0.041 | [6] -0.02

RBFA (UniProt Q8N0V3)
inactive: nilotinib 0.002 | [1] -0.011 | [2] 0.046 | quisinostat 0.163 | tipifarnib 0.058 | [4] -0.001 | [6] 0

RGL2 (UniProt O15211)
inactive: nilotinib -0.315 | [1] -0.067 | dasatinib -0.011 | [2] -0.059 | [3] -0.201 | quisinostat -0.038 | tipifarnib -0.155 | [4] 0.093 | [5] -0.04 | [6] 0.05

RCOR3 isoform 3 (UniProt Q9P2K3)
inactive: nilotinib -0.016 | [1] -0.028 | dasatinib -0.052 | [2] 0.038 | [3] 0.01 | quisinostat 0.022 | tipifarnib 0.011 | [4] 0.03 | [5] 0.029 | [6] 0.014

RBM10 isoform 5 (UniProt P98175)
inactive: nilotinib -0.019 | [1] 0 | dasatinib 0.008 | [2] 0.01 | [3] -0.012 | quisinostat 0.02 | tipifarnib -0.02 | [4] -0.029 | [5] 0.013 | [6] 0.017

REXO5 (UniProt Q96IC2)
inactive: nilotinib 0.052 | [1] -0.057 | dasatinib -0.009 | [2] -0.095 | [3] 0.087 | tipifarnib 0.027 | [6] -0.087

RAVER1 (UniProt E9PAU2)
inactive: nilotinib -0.061 | [1] 0.051 | dasatinib 0.035 | [2] 0.06 | [3] -0.043 | quisinostat -0.069 | tipifarnib -0.043 | [4] 0.005 | [5] 0.002 | [6] 0.052

RBM45 (UniProt Q8IUH3)
inactive: nilotinib 0.051 | [1] -0.077 | [2] 0.143 | quisinostat -0.145 | tipifarnib -0.012 | [4] -0.025 | [5] 0.061

RBM47
inactive: nilotinib -0.334 | [1] 0.018 | dasatinib -0.018 | [2] -0.285 | [3] -0.031 | tipifarnib 0.101 | [5] 0.066 | [6] -0.102

RGS19 (UniProt P49795)
inactive: nilotinib -0.181 | [1] 0.049 | [2] 0.159 | quisinostat -0.091 | tipifarnib 0.044 | [4] -0.048

RASSF7 (UniProt Q02833)
inactive: nilotinib -0.117 | [1] -0.004 | [2] 0.054 | quisinostat 0.034 | tipifarnib -0.015 | [4] 0.037

RBBP5 (UniProt Q15291)
inactive: nilotinib -0.002 | [1] 0.033 | dasatinib 0.094 | [2] -0.014 | [3] -0.051 | quisinostat -0.021 | tipifarnib 0.01 | [4] 0.022 | [5] 0.004 | [6] -0.046

RBMX (UniProt P38159)
inactive: nilotinib 0.034 | [1] -0.079 | dasatinib -0.029 | [2] -0.052 | [3] -0.007 | quisinostat 0.042 | tipifarnib 0.005 | [4] 0.014 | [5] 0.033 | [6] -0.021

RECQL4 (UniProt O94761)
inactive: nilotinib 0.051 | [1] 0.102 | dasatinib -0.007 | [2] -0.063 | [3] -0.019 | quisinostat -0.094 | tipifarnib 0.024 | [4] 0.023 | [6] 0.017

RFX3 (UniProt P48380)
inactive: nilotinib 0.015 | [1] 0.105 | dasatinib -0.024 | [2] 0.005 | [3] -0.062 | tipifarnib 0.021

RB1CC1 (UniProt Q8TDY2)
inactive: nilotinib 0.027 | [1] 0.037 | dasatinib 0.004 | [2] 0.03 | [3] -0.008 | quisinostat -0.1 | tipifarnib -0.014 | [4] 0.065 | [5] 0.003 | [6] -0.009

RELA (UniProt Q04206)
inactive: nilotinib 0.001 | [1] -0.017 | [2] 0.001 | [3] -0.013 | quisinostat -0.07 | tipifarnib -0.001 | [4] 0.006 | [5] 0.012 | [6] 0.002

RETREG2 (UniProt Q8NC44)
active: nilotinib 0.363
inactive: [1] -0.135 | [2] 0.055 | quisinostat -0.084 | tipifarnib -0.076 | [4] -0.016 | [5] -0.012 | [6] -0.022

2 consecutive entries from above, for reference:
RFX3 (UniProt P48380)
inactive: nilotinib 0.015 | [1] 0.105 | dasatinib -0.024 | [2] 0.005 | [3] -0.062 | tipifarnib 0.021

RB1CC1 (UniProt Q8TDY2)
inactive: nilotinib 0.027 | [1] 0.037 | dasatinib 0.004 | [2] 0.03 | [3] -0.008 | quisinostat -0.1 | tipifarnib -0.014 | [4] 0.065 | [5] 0.003 | [6] -0.009

Next part

RAPGEF5, A0A590UJR0
inactive: nilotinib 0.289 | [1] 0.058 | dasatinib 0.002 | [2] -0.263 | [3] -0.024 | quisinostat -0.094 | tipifarnib -0.433 | [4] -0.044 | [5] 0.134 | [6] -0.261

RBM41 (UniProt Q96IZ5)
inactive: nilotinib -0.151 | [1] 0.065 | [2] -0.02 | tipifarnib 0.045

RBM20 (UniProt Q5T481)
inactive: nilotinib 0.166 | [1] 0.163 | dasatinib 0.137 | [2] 0.038 | [3] 0.117 | tipifarnib 0.055 | [6] 0.148

REX1BD (UniProt Q96EN9)
inactive: nilotinib 0.262 | [1] -0.073 | dasatinib 0.124 | [2] 0.16 | [3] -0.049 | quisinostat 0.081 | tipifarnib 0.107 | [4] 0.168 | [6] -0.014

RBL1 (UniProt P28749)
inactive: nilotinib -0.084 | [1] -0.067 | dasatinib 0.048 | [2] 0.009 | [3] 0.021 | quisinostat -0.053 | tipifarnib 0.212 | [4] 0.027 | [5] -0.007 | [6] 0.021

RFNG (UniProt Q9Y644)
inactive: nilotinib 0.184 | [1] 0.054 | [2] -0.078 | tipifarnib -0.048

RDH10 (UniProt Q8IZV5)
inactive: nilotinib -0.004 | [1] 0.011 | dasatinib 0.132 | [2] 0.026 | [3] -0.022 | quisinostat 0.05 | tipifarnib 0.042 | [4] -0.002 | [5] -0.084 | [6] 0.073
